Several values for one entry are separate records, joined by “and”; a condition that tells them apart may be missing. Equal values may be shown once. This is one part of the list. For some of these results: Construct or isoform of the protein are uncertain.

Sequences of proteins named here, by UniProt entry; tags and fusion partners are left off.
UniProt Q9GZZ9, whole entry: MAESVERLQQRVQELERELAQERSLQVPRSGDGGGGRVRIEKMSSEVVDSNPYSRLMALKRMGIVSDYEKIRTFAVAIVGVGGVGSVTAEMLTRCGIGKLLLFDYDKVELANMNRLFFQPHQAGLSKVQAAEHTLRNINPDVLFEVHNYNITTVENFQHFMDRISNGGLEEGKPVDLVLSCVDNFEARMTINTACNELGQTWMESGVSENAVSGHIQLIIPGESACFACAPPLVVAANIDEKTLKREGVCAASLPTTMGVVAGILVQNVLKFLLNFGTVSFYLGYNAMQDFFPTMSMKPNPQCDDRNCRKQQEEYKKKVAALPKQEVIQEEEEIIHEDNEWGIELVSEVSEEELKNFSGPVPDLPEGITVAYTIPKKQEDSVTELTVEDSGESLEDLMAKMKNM

Test systems include Trypsin-2 (human); UBADC1 (human); UBE2C (human); UBE2DNL (human); UBE2L6 (human).
What all share (assay): protein microarray (ProtoArray v5.0), streptavidin-Alexa Fluor 647
Holding throughout (details): 3'-biotin; 20 mM Tris (pH 7.5), 5 mM MgCl2, 100 mM KCl, 0.1% Tween-20, A/T-rich and random oligonucleotide blockers; temperature not stated; high values mean tight binding

The test system of test [1] is Transmembrane protein 86B (human).
The test system of test [2] is Tubulin-specific chaperone D (human).
The subject of test [3] is Tumor protein D52 (human).
Test [4] concerns Tumor protein D53 (human).
For a further test, the target named is UBE1DC1 (UniProt Q9GZZ9).

“GGGGACAGGGGTATGGGGAGGGG [G4-3 biotinylated (CtG)]”: the binding signal is -0.322 z-score in test [1]; -0.331 z-score in the test with Trypsin-2 (human); -0.322 z-score in test [2]; -0.322 z-score in test [3]; -0.316 z-score in test [4]; -0.334 z-score with UBADC1 (human). Moreover, the binding signal with UBE1DC1 was -0.316 z-score; in the test on UBE2C (human), -0.349 z-score and -0.341 z-score; in the test on UBE2DNL (human), -0.314 z-score; in the test with UBE2L6 (human), -0.331 z-score.

These data come from article PMC5996148.
